These are yes or no findings as the source states them, for the method shown. Binding seen in cells or lysates may run through a third protein. Some results given as binding are weak or reduced against the parent protein; the word gives no strength. Where a sequence is shown, tags or fusion partners need not be part of it.
Target: pro-apoptotic Bax (endogenous, 293T cells) (human (endogenous in 293T)) (UniProt Q07812)
Experiment: co-IP; 293T cells transiently transfected, treated with 100 nM STS for 3 h; lysate (1000 to 2000 µg total protein, IP lysis/wash buffer) precipitated with rabbit anti-Bax antibody coupled to AminoLink Plus resin overnight at 4°C, 3 washes; blots with anti-myc or anti-αA/αB-crystallin and anti-Bax

The chains behind the UniProt entries cited, without tags or fusion partners.
UniProt Q07812: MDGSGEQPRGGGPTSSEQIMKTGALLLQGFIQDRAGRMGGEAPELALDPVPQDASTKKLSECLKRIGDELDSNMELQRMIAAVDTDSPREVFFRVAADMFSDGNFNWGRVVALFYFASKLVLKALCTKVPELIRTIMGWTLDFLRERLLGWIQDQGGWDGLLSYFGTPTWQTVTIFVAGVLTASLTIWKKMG

- binding: binds
B1: myc-tagged mouse αB-crystallin (pWPI_αB) (protein, UniProt P23927 1-175)
chain: MDIAIHHPWIRRPFFPFHSPSRLFDQFFGEHLLESDLFSTATSLSPFYLRPPSFLRAPSWIDTGLSEMRLEKDRFSVNLDVKHFSPEELKVKVLGDVIEVHGKHEERQDEHGFISREFHRKYRIPADVDPLTITSSLSSDGVLTVNGPRKQVSGPERTIPITREEKPAVAAAPKK

From PMC3562314
